# Melanoma cell counts after drug treatment

Drug key:
lenalidomide (1 µM): Nc1cccc2c1CN(C1CCC(=O)NC1=O)C2=O (stereo not shown)
LFM-A13 (2 µM): C/C(O)=C(\C#N)C(=O)Nc1cc(Br)ccc1Br
bexarotene (2 µM): C=C(c1ccc(C(=O)O)cc1)c1cc2c(cc1C)C(C)(C)CCC2(C)C
crizotinib (0.2 µM): C[C@@H](Oc1cc(-c2cnn(C3CCNCC3)c2)cnc1N)c1c(Cl)ccc(F)c1Cl
cisplatin (1.6 µM): N.N.[Cl][Pt][Cl]
PF-04217903 (1 µM): OCCn1cc(-c2cnc3nnn(Cc4ccc5ncccc5c4)c3n2)cn1
PF-562271 (0.08 µM): CN(c1ncccc1CNc1nc(Nc2ccc3c(c2)CC(=O)N3)ncc1C(F)(F)F)S(C)(=O)=O
bortezomib (0.001 µM): CC(C)C[C@H](NC(=O)[C@H](Cc1ccccc1)NC(=O)c1cnccn1)B(O)O
SU6656 (0.4 µM): CN(C)S(=O)(=O)c1ccc2c(c1)/C(=C/c1cc3c([nH]1)CCCC3)C(=O)N2

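Human melanoma cells were exposed to a pair of drugs for 72 h in 1,536-well plates and read by automated microscopy after fixing and staining. Each value is the count of nuclei relative to DMSO-treated wells, in %, so that 100 equals the control. Concentrations were fixed for each drug; these are the lower of two levels, a fifth of the higher. The file gives one value for each pair and line, without errors, so small differences may be noise.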
This is part of the screen, not chosen by result.
An entry leaves out what has no value listed here.
A dash means that no value is listed here.

Results for bexarotene and SU6656 are A2058: 91.4; A101D: 98.6.
Results for PF-562271 and bexarotene are A2058: 83.3; A101D: 103; COLO 800: 101; COLO 829: 49.4; G-361: 83.3.
Results for LFM-A13 and SU6656 are 501mel: 102; A2058: 101; A101D: 84.3; COLO 800: 111; COLO 829: 84.5; G-361: 94.9.
Results for crizotinib and bortezomib are A2058: 80.6; A101D: 21.9; COLO 800: 80.4; COLO 829: 54.9; G-361: 4.2.
Results for PF-04217903 and bexarotene are A2058: 99.2; A101D: 119.
Results for PF-04217903 and LFM-A13 are 501mel: 78.4; A2058: 123; A101D: 100; COLO 800: 89.3; COLO 829: 117; G-361: 96.1.
Results for PF-04217903 and crizotinib are A2058: 77.1; A101D: 97.9; COLO 800: 109; COLO 829: 73.2; G-361: 99.1.
Results for SU6656 and lenalidomide are A2058: 93.7; A101D: 71.2.
Results for LFM-A13 and cisplatin are 501mel: 92.1; A2058: 104; A101D: 78.8.
Results for PF-562271 and cisplatin are A2058: 83.8; A101D: 102; COLO 800: 104; COLO 829: 75.1; G-361: 91.1.
Results for cisplatin and PF-04217903 are A2058: 95.6; A101D: 87.1.
Results for lenalidomide and PF-04217903 are A2058: 101; A101D: 97.1.
Results for crizotinib and PF-562271 are A2058: 96.4; A101D: 89.7; COLO 800: 74.0; COLO 829: 87.8; G-361: 86.7.
Results for lenalidomide and bexarotene are A2058: 91.0; A101D: 90.6; COLO 800: 121; COLO 829: 97.0; G-361: 91.0.
Results for bortezomib and lenalidomide are A2058: 88.1; A101D: 28.9; COLO 800: 149; COLO 829: 40.2; G-361: 5.7.
Results for PF-04217903 and PF-562271 are A2058: 92.8; A101D: 86.6.
Results for PF-562271 and bortezomib are A2058: 81.2; A101D: 39.5; COLO 800: 101; COLO 829: 44.8; G-361: 16.6.
Results for SU6656 and PF-562271 are A2058: 85.1; A101D: 72.8.
Results for LFM-A13 and lenalidomide are 501mel: 102; A2058: 93.3; A101D: 97.1; COLO 800: 83.5; COLO 829: 90.6; G-361: 96.9.
Results for bexarotene and bortezomib are A2058: 78.0; A101D: 21.5; COLO 800: 90.1; COLO 829: 54.9; G-361: 3.9.
Results for crizotinib and LFM-A13 are 501mel: 84.5; A2058: 94.4; A101D: 98.1.
Results for SU6656 and cisplatin are A2058: 102; A101D: 65.7.
Results for crizotinib and SU6656 are A2058: 87.8; A101D: 79.4.
Results for bexarotene and LFM-A13 are 501mel: 98.8; A2058: 98.5; A101D: 107.

For reference, 3 entries once more:

Pair	501mel	A2058	A101D	COLO 800	COLO 829	G-361
LFM-A13 and lenalidomide	102	93.3	97.1	83.5	90.6	96.9
PF-04217903 and crizotinib	-	77.1	97.9	109	73.2	99.1
PF-562271 and bortezomib	-	81.2	39.5	101	44.8	16.6

Values as published with doi:10.1371/journal.pone.0140310, rounded.